The target in the assay is T1, NOP2/Sun RNA methyltransferase 5 (NSUN5) (rat (endogenous in BMSCs of Sprague Dawley rats)) (UniProt G3V660).
T1 sequence: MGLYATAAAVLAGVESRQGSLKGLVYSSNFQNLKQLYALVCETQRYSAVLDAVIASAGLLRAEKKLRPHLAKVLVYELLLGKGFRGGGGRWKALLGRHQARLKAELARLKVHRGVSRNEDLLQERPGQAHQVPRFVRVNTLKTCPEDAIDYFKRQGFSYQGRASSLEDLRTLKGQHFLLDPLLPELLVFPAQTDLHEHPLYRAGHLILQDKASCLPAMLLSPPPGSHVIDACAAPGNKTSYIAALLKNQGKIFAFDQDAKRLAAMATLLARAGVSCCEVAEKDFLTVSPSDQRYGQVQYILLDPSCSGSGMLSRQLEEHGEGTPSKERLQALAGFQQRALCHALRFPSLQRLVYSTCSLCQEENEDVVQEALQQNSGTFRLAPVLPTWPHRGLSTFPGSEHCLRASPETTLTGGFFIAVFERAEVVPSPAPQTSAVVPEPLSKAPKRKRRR
As to the kind of experiment: affinity purification with mass spectrometry; co-IP products run on 12.5% nondenaturing polyacrylamide gels, silver stained, analysed by LC-MS/MS (BGI).

These are yes or no findings as the source states them, for the method shown. In cells and extracts the contact can be indirect. A yes stands for co-enrichment or nearness to the bait. Other partners may have been found.

B1: tumor necrosis factor receptor-associated protein 1 (TRAP1) (protein, UniProt Q5XHZ0 61-706)
chain: STQAAEDKKEEALHSIISNTEAVQGSVSKHEFQAETKKLLDIVARSLYSEKEVFIRELISNASDALEKLRHKRVCEGQVLPEMEIHLQTDAEKGTITIQDTGIGMTKEELVSNLGTIARSGSKAFLEALQHQAETSSRIIGQFGVGFYSAFMVADKVEVYSRPAAPESPGYQWLSDGSGVFEIAEASGVRPGTKIIIHLKSDCKDFANESRVQDVVTKYSNFVSFPLYLNGRRINTLQAIWMMDPKDISEFQHEEFYRYIAQAYDKPRFILHYKTDAPLNIRSIFYVPEMKPSMFDVSRELGSSVALYSRKVLIQTKATDILPKWLRFVRGVVDSEDIPLNLSRELLQESALIRKLRDVLQQRLIKFFIDQSKKDAEKYAKFFEDYGLFMREGIVTTAEQDIKEDIAKLLRYESSALPAGQLTSLSDYASRMQAGTRNIYYLCAPNRHLAEHSPYYEAMKQKQTEVLFCYEQFDELTLLHLREFDKKKLISVETDIVVDHYKEEKFEDTSPAGERLSEKETEELMAWMRNALGSRVTNVKVTFRLDTHPAMVTVLEMGAARHFLRMQQLAKTQEERAQLLQPTLEINPRHTLIKKLNQLREREPELAQLLVDQIYENAMIAAGLVDDPRAMVGRLNDLLVKALERH
In the case of B1, the binding result is reported as “binds”.

(Values after paper PMC8898311.)
